The values are deposited in ChEMBL (CHEMBL3988442, “University of Dundee, Small-Polar-MMV Screening Library” (2021)).

The chains behind the UniProt entries cited, without tags or fusion partners.
UniProt P9WNZ1, whole entry: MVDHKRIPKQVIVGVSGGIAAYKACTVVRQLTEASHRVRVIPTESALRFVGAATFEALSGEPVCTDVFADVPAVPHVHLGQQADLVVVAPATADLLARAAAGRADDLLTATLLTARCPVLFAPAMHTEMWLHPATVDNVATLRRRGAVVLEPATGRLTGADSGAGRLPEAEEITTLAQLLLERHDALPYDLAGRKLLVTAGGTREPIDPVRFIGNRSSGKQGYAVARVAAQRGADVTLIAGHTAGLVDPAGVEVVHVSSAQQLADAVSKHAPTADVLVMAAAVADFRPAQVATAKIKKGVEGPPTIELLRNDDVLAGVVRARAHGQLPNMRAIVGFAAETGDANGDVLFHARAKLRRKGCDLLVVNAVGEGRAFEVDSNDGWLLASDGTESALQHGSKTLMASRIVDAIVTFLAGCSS
UniProt P9WFT3, whole entry: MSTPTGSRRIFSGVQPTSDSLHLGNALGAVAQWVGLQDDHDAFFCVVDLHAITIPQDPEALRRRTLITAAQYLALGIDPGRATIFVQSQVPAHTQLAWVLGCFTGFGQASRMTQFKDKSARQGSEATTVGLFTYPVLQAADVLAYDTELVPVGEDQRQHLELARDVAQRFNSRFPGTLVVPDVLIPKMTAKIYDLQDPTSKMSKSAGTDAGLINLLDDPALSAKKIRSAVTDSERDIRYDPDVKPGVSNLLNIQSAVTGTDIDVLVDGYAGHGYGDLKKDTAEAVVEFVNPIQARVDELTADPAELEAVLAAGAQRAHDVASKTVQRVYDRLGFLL
UniProt I6X8D2, whole entry: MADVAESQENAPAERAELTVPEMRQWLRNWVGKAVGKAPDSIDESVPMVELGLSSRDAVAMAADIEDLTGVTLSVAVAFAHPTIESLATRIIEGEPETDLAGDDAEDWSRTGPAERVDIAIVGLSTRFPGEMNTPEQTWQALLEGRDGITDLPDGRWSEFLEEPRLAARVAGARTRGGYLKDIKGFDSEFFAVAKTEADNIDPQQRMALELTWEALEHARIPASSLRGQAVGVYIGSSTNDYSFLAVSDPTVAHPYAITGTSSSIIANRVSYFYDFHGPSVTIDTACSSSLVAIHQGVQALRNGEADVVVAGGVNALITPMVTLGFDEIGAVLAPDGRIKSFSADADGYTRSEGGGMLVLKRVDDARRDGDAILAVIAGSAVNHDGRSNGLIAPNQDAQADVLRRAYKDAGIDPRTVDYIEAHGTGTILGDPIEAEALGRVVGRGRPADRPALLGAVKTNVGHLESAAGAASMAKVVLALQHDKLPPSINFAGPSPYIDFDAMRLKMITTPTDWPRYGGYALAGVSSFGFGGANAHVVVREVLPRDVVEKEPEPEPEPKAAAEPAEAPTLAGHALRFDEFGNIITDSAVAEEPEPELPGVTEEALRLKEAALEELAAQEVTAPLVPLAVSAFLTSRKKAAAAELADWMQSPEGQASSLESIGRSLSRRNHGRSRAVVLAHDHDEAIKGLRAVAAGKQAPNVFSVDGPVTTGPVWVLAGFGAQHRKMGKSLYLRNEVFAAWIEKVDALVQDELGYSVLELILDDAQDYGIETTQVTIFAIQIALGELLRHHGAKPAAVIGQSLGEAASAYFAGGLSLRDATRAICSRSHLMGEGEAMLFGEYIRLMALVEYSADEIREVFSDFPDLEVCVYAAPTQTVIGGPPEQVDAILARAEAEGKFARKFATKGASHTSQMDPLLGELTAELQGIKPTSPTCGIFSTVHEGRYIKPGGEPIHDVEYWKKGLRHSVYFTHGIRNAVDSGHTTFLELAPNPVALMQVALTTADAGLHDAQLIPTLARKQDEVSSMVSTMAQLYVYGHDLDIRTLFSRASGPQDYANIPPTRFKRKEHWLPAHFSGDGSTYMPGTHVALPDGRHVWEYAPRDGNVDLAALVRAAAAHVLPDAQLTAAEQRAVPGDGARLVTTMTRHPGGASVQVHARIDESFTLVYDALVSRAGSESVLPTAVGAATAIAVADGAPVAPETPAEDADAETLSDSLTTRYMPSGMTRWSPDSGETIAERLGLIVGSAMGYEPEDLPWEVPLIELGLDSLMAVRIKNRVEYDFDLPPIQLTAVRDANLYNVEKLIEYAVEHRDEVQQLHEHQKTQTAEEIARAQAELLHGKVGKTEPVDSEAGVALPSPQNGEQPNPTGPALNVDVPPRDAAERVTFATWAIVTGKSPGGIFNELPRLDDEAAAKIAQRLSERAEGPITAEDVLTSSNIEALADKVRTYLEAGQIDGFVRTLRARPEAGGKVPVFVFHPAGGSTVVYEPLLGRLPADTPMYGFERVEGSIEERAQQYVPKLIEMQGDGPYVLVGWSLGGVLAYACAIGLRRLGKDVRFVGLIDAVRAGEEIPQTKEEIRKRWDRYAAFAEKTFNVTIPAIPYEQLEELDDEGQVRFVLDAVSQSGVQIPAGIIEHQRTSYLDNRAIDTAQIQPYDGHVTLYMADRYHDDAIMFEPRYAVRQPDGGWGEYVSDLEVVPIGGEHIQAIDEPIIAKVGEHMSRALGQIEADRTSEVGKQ

A: 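Enzyme assay of CoaBC with a phosphate dye (Biomol Green) read at 650 nm. Target: Coenzyme A biosynthesis protein CoaBC, Mycobacterium tuberculosis (UniProt P9WNZ1). Compounds at 30 µM. Direction is inferred from only a few compounds that gave an IC50; most scored high, so higher reads as stronger inhibition. Most strong results did not repeat in a second test. Of about 67,000 compounds tested this way, about 40 (0.06%) reached 50% or more in at least one test.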
B: 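Tryptophan-tRNA ligase, Mycobacterium tuberculosis (UniProt P9WFT3). Enzyme assay of tryptophanyl-tRNA synthetase; the read-out is not stated. Tested at 10 µM. Direction is not recorded; retested compounds ran higher, which suggests that high means inhibition. Of about 65,000 compounds tested this way, about 64 (0.098%) reached 50% or more in at least one test.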
C: 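Polyketide synthase Pks13, Mycobacterium tuberculosis (UniProt I6X8D2). Enzyme assay of the thioesterase domain of polyketide synthase 13; the read-out is not stated. Concentration: 30 µM. Higher reads as stronger inhibition (inferred from which compounds were picked for retests). Size under these conditions: about 67,000 compounds, about 300 of them at 50% or above in at least one test.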

The filed quantity is “Percent Effect” (%). The controls that fix the scale are not given in the record; negative values are as filed. Compounds were drawn at random from those tested, without regard to their results. A dash means the value is not listed here; it may have been measured.

CC1(CNC(=O)NCc2ccsc2)CCCS1 (stereo unspecified) read A: 2.926%; B: 0.297%; C: -5.381%. NS(=O)(=O)c1ccc(CNC(=O)c2ccc(Cl)cc2F)cc1 read A: 6.526%; B: 0.9893%; C: 0.4284%. With CN(CCO)C1CCN(c2ncc3c(n2)CCN3c2ccccc2)CC1 the screen gave A: -31.55%; B: -0.6274%. With c1cc(CN2CCCC(c3noc(C4CC4)n3)C2)no1 (stereo unspecified) the screen gave A: 4.152%; B: 2.739%; C: -4.669%.

With CC(C)c1cc(N2CCC(NS(C)(=O)=O)C2)nc(C(C)C)n1 (stereo unspecified) the screen gave A: -2.552%; B: -2.894%; C: 1.464%. Cc1cc(C)n(Cc2ccc(-c3noc(C(=O)NCCCO)n3)cc2)n1 gave A: -0.9639%; B: 2.395%; C: 11.15%. Cn1c2ncccc2c(=O)n1CC(=O)NCCc1c(F)cccc1F read A: 3.471%; B: 1.615%; C: -0.4398%. With Cc1ccc(S(=O)(=O)N2C[C@H](C3CC3)[C@@H](N)C2)cc1F the screen gave A: 6.273%; B: -1.348%; C: -20.06%.

O=C(Nc1cccnc1-n1cccn1)N1CCCC(N2CCCC2)C1 (stereo unspecified) gave A: 0%; B: -7.74%; C: -28.83%. With NC(=O)CN1CCC(NC(=O)c2ccn(-c3cccc(F)c3)n2)CC1 the screen gave A: -5.485%; B: -0.1896%; C: -8.292%. Cc1cc(C(=O)NCc2c(C)nn(C)c2C)nc(N2CCCC2)n1 gave A: 1.734%; B: -2.513%; C: 3.854%. For c1ccc(CN2CCC(NCCSc3cnn[nH]3)CC2)cc1 the result was A: -5.882%; B: 0.1575%; C: -51.11%.

For CC(C)COC[C@@H]1CC[C@H]2[C@H](CCN2C(=O)c2ccncc2F)O1 the result was A: 0%; B: -8.439%; C: -4.751%. For CC(=O)NCCNC(=O)NCCc1c(C)cc(C)cc1C the result was A: 11.16%; B: -3.343%; C: -9.524%. With Cc1ccsc1CNc1ccc(C(=O)N2CCNC(=O)C2)cn1 the screen gave A: 0.4878%; B: -1.283%; C: -7.859%. For CS(=O)(=O)c1ccc(CNC[C@H]2COCc3nc4cccnc4n32)cc1 the result was A: 7.742%; B: 0.2788%; C: -29.44%.

For COc1cc(-c2cccc3c2OC(CN)C3)cc(OC)c1OC (stereo unspecified) the result was A: 1.946%; B: 4.139%; C: 1.938%. For CN(Cc1ccco1)C(=O)CN1CCN(C)c2ccccc2C1 the result was A: 5.703%; B: -4.46%; C: -12.2%. With Cc1noc(C(C)N2CCN(CC(=O)N3CCOCC3)CC2)n1 (stereo unspecified) the screen gave A: 2.294%; B: 10.49%; C: -19.97%. Cc1ccc(C(=O)N2C[C@H]3CCC[C@@]3(COCc3ccncc3)C2)cn1 gave A: -1.474%; B: -0.7171%; C: -5.544%.

Result for O=C(c1cccnc1)N1CCC2(CC1)CN(c1ccccn1)CCO2 was A: 8.316%; B: 3.132%; C: -0.8474%. Result for CCNC(=O)NCc1nn(CCN2CCCC2)c(=O)c2ccccc12 was A: -1.211%; B: 1.708%; C: -8.647%. Result for COc1ccccc1OC1CCN(C(=O)CCCn2ccnc2)CC1 was A: -0.6536%; B: -6.416%; C: -37.43%. CCN(Cc1nc(COC)no1)Cc1ccccc1OCC(=O)O read A: 3.226%; B: 1.713%; C: -22.62%.

For CCC1(CC)CC(=O)N(CC(O)c2ccc(Cl)cc2)C1=O (stereo unspecified) the result was A: 12.49%; B: -0.6415%; C: -1.085%. Cc1nccn1-c1cc(CNC(=O)C(C)(C)C)ccn1 gave A: 9.595%; B: 3.635%; C: -15.87%. With Cc1nnc2n1CCN(C(C)c1nnc(-c3cccs3)o1)C2 (stereo unspecified) the screen gave A: 6.723%; B: 0.8576%; C: 12.58%. CSc1ccc(NC(=O)NCC2CCCO2)cc1F (stereo unspecified) gave A: -8.84%; B: -3.728%; C: -31.64%.

Result for CCOC(=O)N[C@H]1C[C@@H](C(=O)NCc2cccc(Cl)c2)N(C)C1 was A: 4.707%; B: 4.751%; C: -1.574%. For O=C(C1CCCC1)N1CCC2(CC1)OCCO2 the result was A: 2.286%; B: -2.494%; C: -3.18%. For N#Cc1cc(F)c(N2CCC(NS(=O)(=O)c3cccs3)CC2)c(F)c1 the result was A: 1.646%; B: 4.079%; C: 18.78%. For CC(C)Oc1ccc(Cl)c(C(=O)N2CCN(CCO)CC2)n1 the result was A: 5.29%; B: 2.532%; C: -40.05%.

Cc1cc(NC(=O)c2ccc(F)cc2Br)n(C)n1 read A: 4.464%; B: -1.961%; C: -7.692%. With c1cncc(COC[C@@H]2CCC[C@]23CNCCO3)c1 the screen gave A: 0.7407%. Result for COc1ccc(CC(=O)N2CC[C@@]3(O)CCNC[C@H]3C2)c(OC)c1 was A: -0.7673%; B: -0.6299%; C: 4.857%. With CC(CO)NC(=O)c1ccc(NCc2ccc(F)c(F)c2)cc1 (stereo unspecified) the screen gave A: 0.6337%; B: -0.6571%; C: -59.42%.

CCc1nccc(CN2CCCC(CNC(=O)c3occc3C)C2)n1 (stereo unspecified) gave A: 3.016%; B: -0.2174%; C: -22.22%. For CSCC(=O)NS(=O)(=O)c1ccc2c(c1)OCCO2 the result was A: -2.915%; B: -2.072%; C: -11.34%.

For reference, 5 entries once more:

SMILES,A,B,C
CSc1ccc(NC(=O)NCC2CCCO2)cc1F (stereo unspecified),-8.84%,-3.728%,-31.64%
CC(CO)NC(=O)c1ccc(NCc2ccc(F)c(F)c2)cc1 (stereo unspecified),0.6337%,-0.6571%,-59.42%
c1cncc(COC[C@@H]2CCC[C@]23CNCCO3)c1,0.7407%,-,-
c1cc(CN2CCCC(c3noc(C4CC4)n3)C2)no1 (stereo unspecified),4.152%,2.739%,-4.669%
Cc1nnc2n1CCN(C(C)c1nnc(-c3cccs3)o1)C2 (stereo unspecified),6.723%,0.8576%,12.58%